Source: PMC9756111, “Stabilization of DNA fork junctions by Smc5/6 complexes revealed by single-molecule imaging”
No constants are given. Whether binding was seen depends on the method and setting. In cells and extracts the contact can be indirect. Here binding means that the protein was enriched with, or labelled near, the bait; the list need not be complete. Blank lines part the entries; values can stand above or below the binder they belong to.

Biological target: T1, Smc6 (budding yeast) (UniProt Q12749)
T1 sequence: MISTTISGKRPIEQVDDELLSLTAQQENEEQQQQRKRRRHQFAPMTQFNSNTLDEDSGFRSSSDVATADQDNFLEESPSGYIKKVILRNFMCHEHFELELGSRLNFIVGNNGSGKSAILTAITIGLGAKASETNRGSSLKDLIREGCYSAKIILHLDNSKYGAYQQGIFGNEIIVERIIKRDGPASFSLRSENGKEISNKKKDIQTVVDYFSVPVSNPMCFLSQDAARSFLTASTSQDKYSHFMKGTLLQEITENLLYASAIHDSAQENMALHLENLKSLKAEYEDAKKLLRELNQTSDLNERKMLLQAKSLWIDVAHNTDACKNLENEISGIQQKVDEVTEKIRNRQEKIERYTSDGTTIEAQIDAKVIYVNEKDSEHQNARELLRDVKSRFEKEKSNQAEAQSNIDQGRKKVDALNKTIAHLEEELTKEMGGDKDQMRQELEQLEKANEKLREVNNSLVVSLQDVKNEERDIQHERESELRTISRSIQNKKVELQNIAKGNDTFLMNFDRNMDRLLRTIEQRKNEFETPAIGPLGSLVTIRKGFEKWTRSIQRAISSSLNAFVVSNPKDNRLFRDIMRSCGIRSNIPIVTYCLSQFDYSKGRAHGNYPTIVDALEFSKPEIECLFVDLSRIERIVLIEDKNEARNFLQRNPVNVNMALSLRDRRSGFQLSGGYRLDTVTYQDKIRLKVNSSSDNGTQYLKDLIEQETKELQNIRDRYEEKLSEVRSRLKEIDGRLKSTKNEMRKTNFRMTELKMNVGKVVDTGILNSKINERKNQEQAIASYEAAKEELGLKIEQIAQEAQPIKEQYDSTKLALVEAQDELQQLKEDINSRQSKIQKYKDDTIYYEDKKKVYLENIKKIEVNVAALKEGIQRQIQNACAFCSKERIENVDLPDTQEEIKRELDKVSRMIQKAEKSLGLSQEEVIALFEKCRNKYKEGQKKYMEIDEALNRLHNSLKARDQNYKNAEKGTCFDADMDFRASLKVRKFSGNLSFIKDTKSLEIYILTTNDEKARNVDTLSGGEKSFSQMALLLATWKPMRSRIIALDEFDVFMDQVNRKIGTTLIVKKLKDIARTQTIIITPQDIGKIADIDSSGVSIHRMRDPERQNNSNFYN
Experiment: affinity purification with mass spectrometry; eight subunits co-expressed in S. cerevisiae; lysate on StrepTrap HP (Smc6-3xStrepII), desthiobiotin elution, HiTrap Heparin, Superose 6 Increase at 300 mM NaCl; integrity confirmed by SDS-PAGE and mass spectrometry

- binding: binds
B1: Nse1 (protein, UniProt Q07913 1-336)
chain: MEVHEEQVSAPVTGDATAKYLLQYILSARGICHENALILALMRLETDASTLNTEWSIQQWVDKLNDYINAINVKLNLLGYKIIRINHGIGRNAVTLKAKQNFESFEDNTAIRAHNNDYAVLQSIVLPESNRFFVYVNLASTEETKLATRFNQNEIEFMKWAIEQFMISGETIVEGPALETSIIVKEVNRILVAATGDSNLAKWRKFSTFTVGSTNLFQFQELTATDIEDLLLRLCELKWFYRTQEGKFGIDLRCIAELEEYLTSMYNLNTCQNCHKLAIQGVRCGNESCREENEETGENSLSQIWHVDCFKHYITHVSKNCDRCGSSLITEGVYVI

- binding: binds
B2: Nse4 (protein, UniProt P43124 1-402)
chain: MSSTVISRKRRNSTVTEPDSSGETRKQKKSRSDEKSSSSKDGDPQLEFKVLQGYRDLESEMHKGRAQVTRTGDIGVAMDNLNAVDSLFNKVIGIKNNGLFAHDARAMVSISELAQISVRNLKFDDSRSMVNLENIVNSLKRYMLKEHFKLNNIAENRNDLTLAADEQSAADQQEESDGDIDRTPDDNHTDKATSSFKATSMRHSYLQQFSHYNEFSQFNWFRIGALYNTISKNAPITDHLMGPLSIEKKPRVLTQRRRNNDQVGEKITAEKITQHSLNSTQQETTPEQVKKCFKKLSKKLGPEGSINLFKFIIDPNSFSRSIENLFYTSFLIKEGKLLMEHDEEGLPTIKIKQSISHTDSRSKEIERQRRRAAHQNHIIFQMDMPTWRKLIKKYNITSPFLD

- binding: binds
B3: Nse2 (protein, UniProt P38632 1-267)
chain: MALNDNPIPKSVPLHPKSGKYFHNLHARDLSNIYQQCYKQIDETINQLVDSTSPSTIGIEEQVADITSTYKLLSTYESESNSFDEHIKDLKKNFKQSSDACPQIDLSTWDKYRTGELTAPKLSELYLNMPTPEPATMVNNTDTLKILKVLPYIWNDPTCVIPDLQNPADEDDLQIEGGKIELTCPITCKPYEAPLISRKCNHVFDRDGIQNYLQGYTTRDCPQAACSQVVSMRDFVRDPIMELRCKIAKMKESQEQDKRSSQAIDVL

- binding: binds
B4: Nse3 (protein, UniProt Q05541 1-303)
chain: MSSIDNDSDVDLTEDLAVAKIVKENPVARKMVRYILSRGESQNSIITRNKLQSVIHEAAREENIAKPSFSKMFMDINAILYNVYGFELQGLPSKNNMNAGGNGSNSNTNKSMPEPLGHRAQKFILLNNVPHSKNFDDFKILQSAHTYEELIVTGEYIGDDIASGTSNTLESKLSTDRDLVYKGVLSVILCIVFFSKNNILHQELIKFLETFGIPSDGSKIAILNITIEDLIKSLEKREYIVRLEEKSDTDGEVISYRIGRRTQAELGLESLEKLVQEIMGLEKEQTKSLHDDIIKSIGDSYSI
